Results taken from patent publication US20140121213A1, “VOLTAGE-GATED SODIUM CHANNEL BLOCKERS” (priority 2011, published 2014).
Some of these results come from one statement about several compounds together. At least one structure is not confirmed: it was looked up by name or label, or the drawing left a doubt.

Chains of the proteins cited; added tags and fusions are not shown.
UniProt Q15858, whole entry: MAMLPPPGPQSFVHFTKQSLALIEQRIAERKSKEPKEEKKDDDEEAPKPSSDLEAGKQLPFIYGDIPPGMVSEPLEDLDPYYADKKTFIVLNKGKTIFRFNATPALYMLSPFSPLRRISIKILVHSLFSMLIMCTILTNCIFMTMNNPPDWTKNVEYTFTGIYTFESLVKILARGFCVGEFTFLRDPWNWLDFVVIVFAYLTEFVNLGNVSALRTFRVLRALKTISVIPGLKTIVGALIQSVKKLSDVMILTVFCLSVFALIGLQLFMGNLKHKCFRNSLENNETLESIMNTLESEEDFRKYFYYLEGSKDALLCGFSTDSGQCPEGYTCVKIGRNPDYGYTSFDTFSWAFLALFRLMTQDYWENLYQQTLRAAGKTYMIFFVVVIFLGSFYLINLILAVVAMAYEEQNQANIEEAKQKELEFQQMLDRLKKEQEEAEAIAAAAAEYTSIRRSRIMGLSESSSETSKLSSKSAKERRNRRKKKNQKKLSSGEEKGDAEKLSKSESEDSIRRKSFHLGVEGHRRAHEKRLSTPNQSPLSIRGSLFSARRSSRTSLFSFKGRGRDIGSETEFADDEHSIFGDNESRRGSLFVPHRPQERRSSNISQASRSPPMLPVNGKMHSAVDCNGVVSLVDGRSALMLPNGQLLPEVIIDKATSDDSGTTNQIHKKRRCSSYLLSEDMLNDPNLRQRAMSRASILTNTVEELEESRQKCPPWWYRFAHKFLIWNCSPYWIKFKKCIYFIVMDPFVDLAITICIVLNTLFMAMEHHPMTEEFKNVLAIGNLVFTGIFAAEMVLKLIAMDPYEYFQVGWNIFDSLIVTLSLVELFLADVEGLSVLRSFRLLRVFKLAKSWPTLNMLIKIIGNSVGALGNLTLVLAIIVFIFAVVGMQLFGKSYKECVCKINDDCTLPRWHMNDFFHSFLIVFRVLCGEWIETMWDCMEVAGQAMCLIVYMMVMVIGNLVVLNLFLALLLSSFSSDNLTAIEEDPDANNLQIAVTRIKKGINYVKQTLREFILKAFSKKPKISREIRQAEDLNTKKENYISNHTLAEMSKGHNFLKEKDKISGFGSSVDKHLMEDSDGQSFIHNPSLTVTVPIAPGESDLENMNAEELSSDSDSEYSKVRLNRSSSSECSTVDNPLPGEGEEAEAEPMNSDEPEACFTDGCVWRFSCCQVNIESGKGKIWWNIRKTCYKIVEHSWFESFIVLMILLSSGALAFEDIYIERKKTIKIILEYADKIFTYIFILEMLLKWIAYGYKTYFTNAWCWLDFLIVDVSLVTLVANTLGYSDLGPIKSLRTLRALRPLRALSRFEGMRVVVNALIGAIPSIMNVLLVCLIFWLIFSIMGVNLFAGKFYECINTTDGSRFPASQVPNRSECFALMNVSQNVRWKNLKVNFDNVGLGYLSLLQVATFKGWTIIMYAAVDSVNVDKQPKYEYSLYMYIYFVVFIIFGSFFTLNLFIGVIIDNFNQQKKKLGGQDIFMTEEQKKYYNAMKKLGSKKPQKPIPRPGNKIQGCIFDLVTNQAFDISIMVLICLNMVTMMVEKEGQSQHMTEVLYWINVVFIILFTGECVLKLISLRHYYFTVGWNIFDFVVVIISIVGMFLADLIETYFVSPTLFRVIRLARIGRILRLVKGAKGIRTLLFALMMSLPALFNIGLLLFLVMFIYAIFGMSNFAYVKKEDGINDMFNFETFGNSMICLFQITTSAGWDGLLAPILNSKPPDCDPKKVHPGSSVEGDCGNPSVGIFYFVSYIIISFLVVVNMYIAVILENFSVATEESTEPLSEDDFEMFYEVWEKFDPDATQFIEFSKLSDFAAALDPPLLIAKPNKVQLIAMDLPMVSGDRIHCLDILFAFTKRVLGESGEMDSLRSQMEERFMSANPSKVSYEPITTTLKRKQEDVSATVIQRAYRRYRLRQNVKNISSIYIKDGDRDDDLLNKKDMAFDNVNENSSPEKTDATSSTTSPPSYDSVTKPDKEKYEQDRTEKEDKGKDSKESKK

biological target: NaV 1.7 (Homo sapiens, UniProt Q15858); assay: Use-dependent inhibition of NaV1.7 currents, IonWorks Quattro planar array electrophysiology; format: cell-based; details: use-dependent; concentration producing 15% inhibition, 10th versus 1st depolarizing pulse, 10 Hz

Row | pUD15 against NaV1.7 | Structure (SMILES)
1 | 4-4.99 | CCOc1cc(CN2CCN(c3ncccc3C(=O)OC(C)C)CC2)ccc1OCc1ccccc1Cl [Example 312, 1-methylethyl 2-(4-{[4-{[(2-chlorophenyl)methyl]oxy}-3-(ethyloxy)phenyl]methyl}-1-piperazinyl)-3-pyridinecarboxylate]
2 | 5-5.99 | CC(C)OC(=O)c1cccnc1N1CCN(Cc2ccc(OCc3ccccc3Cl)cc2)CC1 [Example 316, 1-methylethyl 2-{4-[(4-{[(2-chlorophenyl)methyl]oxy}phenyl)methyl]-1-piperazinyl}-3-pyridinecarboxylate]
3 | 5-5.99 | CC(C)OC(=O)c1cccnc1N1CCN(Cc2ccc(OCc3ccccc3)cc2O)CC1 [Example 326, 1-methylethyl 2-[4-({2-hydroxy-4-[(phenylmethyl)oxy]phenyl}methyl)-1-piperazinyl]-3-pyridinecarboxylate]
4 | 4-4.99 | CC(C)OC(=O)c1cccnc1N1CCN(Cc2ccc(OCc3ccc(Cl)c(Cl)c3)cc2)CC1 [Example 327, 1-methylethyl 2-{4-[(4-{[(3,4-dichlorophenyl)methyl]oxy}phenyl)methyl]-1-piperazinyl}-3-pyridinecarboxylate]
5 | 4-4.99 | COc1cc(OCc2ccccc2)ccc1CN1CCN(c2ncccc2C(=O)OC(C)C)CC1 [Example 331, 1-methylethyl 2-[4-({2-(methyloxy)-4-[(phenylmethyl)oxy]phenyl}methyl)-1-piperazinyl]-3-pyridinecarboxylate]
6 | 5-5.99 | CC(C)OC(=O)c1cccnc1N1CCN(Cc2ccc(OCc3ccccc3)c(OCc3ccccc3)c2)CC1 [Example 334, 1-methylethyl 2-[4-({3,4-bis[(phenylmethyl)oxy]phenyl}methyl)-1-piperazinyl]-3-pyridinecarboxylate]
7 | 4-4.99 | CC(C)OC(=O)c1cccnc1N1CCN(Cc2cccc(Oc3ccc(Cl)cc3)c2)CC1 [Example 343, 1-methylethyl 2-[4-({3-[(4-chlorophenyl)oxy]phenyl}methyl)-1-piperazinyl]-3-pyridinecarboxylate]
8 | 4-4.99 | CC(C)OC(=O)c1cccnc1N1CCN(Cc2ccc(Oc3ccc(F)cc3)cc2)CC1 [Example 352, 1-methylethyl 2-[4-({4-[(4-fluorophenyl)oxy]phenyl}methyl)-1-piperazinyl]-3-pyridinecarboxylate]
9 | 5-5.99 | CC(C)OC(=O)c1cccnc1N1CCN(Cc2ccc(Oc3ccccc3)cc2)CC1 [Example 366, 1-methylethyl 2-(4-{[4-(phenyloxy)phenyl]methyl}-1-piperazinyl)-3-pyridinecarboxylate]
10 | 5-5.99 | COc1ccccc1COc1cccc(CN2CCN(c3ncccc3C(=O)OC(C)C)CC2)c1 [Example 400, 1-methylethyl 2-(4-{[3-({[2-(methyloxy)phenyl]methyl}oxy)phenyl]methyl}-1-piperazinyl)-3-pyridinecarboxylate]
11 | 5-5.99 | CC(C)OC(=O)c1cccnc1N1CCN(Cc2cccc(OCc3cccc(N(C)C)c3)c2)CC1 [Example 403, 1-methylethyl 2-(4-{[3-({[3-(dimethylamino)phenyl]methyl}oxy)phenyl]methyl}-1-piperazinyl)-3-pyridinecarboxylate]
12 | 5-5.99 | CCOc1ccc(COc2cccc(CN3CCN(c4ncccc4C(=O)OC(C)C)CC3)c2)cc1 [Example 407, 1-methylethyl 2-(4-{[3-({[4-(ethyloxy)phenyl]methyl}oxy)phenyl]methyl}-1-piperazinyl)-3-pyridinecarboxylate]
13 | 5-5.99 | CC(C)OC(=O)c1cccnc1N1CCN(Cc2ccc(OCc3cccc4c3OCCO4)cc2)CC1 [Example 428]
14 | 4-4.99 | CC(C)OC(=O)c1cccnc1N1CCN(Cc2ccc(OCc3cccc(N(C)C)c3)cc2)CC1 [Example 433]
15 | 5-5.99 | CCOc1ccc(COc2ccc(CN3CCN(c4ncccc4C(=O)OC(C)C)CC3)cc2)cc1 [Example 438]
16 | 5-5.99 | COc1ccc(COc2ccc(CN3CCN(c4ncccc4C(=O)OC(C)C)CC3)cc2)cc1 [Example 455]
17 | 5-5.99 | COc1cccc(CN2CCN(Cc3ccc(CN4CCN(c5ncccc5C(=O)OC(C)C)CC4)cc3)CC2)c1 [Example 466]

Second part, the molecule before the results:

Row | Structure (SMILES) | pUD15 against NaV1.7
18 | CCOc1ncccc1CN1CCN(c2nccc(C)c2C(=O)OC(C)C)CC1 [Example 245, 1-methylethyl 2-(4-{[2-(ethyloxy)-3-pyridinyl]methyl}-1-piperazinyl)-4-methyl-3-pyridinecarboxylate] | 5-5.99
19 | Cc1ccnc(N2CCN(Cc3cccn3-c3cccnc3)CC2)c1C(=O)OC(C)C [Example 248, 1-methylethyl 4-methyl-2-(4-{[1-(3-pyridinyl)-1H-pyrrol-2-yl]methyl}-1-piperazinyl)-3-pyridinecarboxylate] | 5-5.99
20 | CC(C)OC(=O)c1cccnc1N(C)[C@@H]1CCN(Cc2ccccc2Oc2cccc(Cl)c2)C1 [Example 258, 1-methylethyl 2-[[(3R)-1-({2-[(3-chlorophenyl)oxy]phenyl}methyl)-3-pyrrolidinyl](methyl)amino]-3-pyridinecarboxylate] | 5-5.99
21 | CC(C)OC(=O)c1cccnc1N(C)[C@@H]1CCN(Cc2ccc(-c3cccs3)cc2)C1 [Example 272, 1-methylethyl 2-[methyl((3R)-1-{[4-(2-thienyl)phenyl]methyl}-3-pyrrolidinyl)amino]-3-pyridinecarboxylate] | 5-5.99
22 | CC(C)OC(=O)c1cccnc1N(C)[C@@H]1CCN(Cc2cccc(-c3ccc(F)cc3)c2)C1 [Example 275, 1-methylethyl 2-[{(3R)-1-[(4′-fluoro-3-biphenylyl)methyl]-3-pyrrolidinyl}(methyl)amino]-3-pyridinecarboxylate] | 5-5.99
23 | CCN(C1CCN(c2cccc(Cl)c2)CC1)[C@@H]1CCN(c2nccc(C)c2C(=O)OC(C)C)C1 [Example 290, 1-methylethyl 2-{(3R)-3-[[1-(3-chlorophenyl)-4-piperidinyl](ethyl)amino]-1-pyrrolidinyl}-4-methyl-3-pyridinecarboxylate] | 5-5.99
24 | COc1cc(CN2CCN(c3ncccc3C(=O)OC(C)C)CC2)ccc1OCc1ccc(Cl)cc1Cl [Example 307, 1-methylethyl 2-(4-{[4-{[(2,4-dichlorophenyl)methyl]oxy}-3-(methyloxy)phenyl]methyl}-1-piperazinyl)-3-pyridinecarboxylate] | 5-5.99
25 | COc1cc(CN2CCN(c3ncccc3C(=O)OC(C)C)CC2)ccc1OCc1c(F)cccc1Cl [Example 328, 1-methylethyl 2-(4-{[4-{[(2-chloro-6-fluorophenyl)methyl]oxy}-3-(methyloxy)phenyl]methyl}-1-piperazinyl)-3-pyridinecarboxylate] | 5-5.99
26 | CC(C)OC(=O)c1cccnc1N1CCN(Cc2cccc(Oc3ccccc3)c2)CC1 [Example 347, 1-methylethyl 2-(4-{[3-(phenyloxy)phenyl]methyl}-1-piperazinyl)-3-pyridinecarboxylate] | 5-5.99
27 | COc1cccc(-c2ccccc2CN2CCN(c3ncccc3C(=O)OC(C)C)CC2)c1 [Example 371, 1-methylethyl 2-(4-{[3′-(methyloxy)-2-biphenylyl]methyl}-1-piperazinyl)-3-pyridinecarboxylate] | 5-5.99
28 | CC(C)OC(=O)c1cccnc1N(C)[C@H]1CCN(Cc2cccc(OCc3ccccc3)c2)C1 [Example 376, 1-methylethyl 2-{methyl[(3S)-1-({3-[(phenylmethyl)oxy]phenyl}methyl)-3-pyrrolidinyl]amino}-3-pyridinecarboxylate] | 5-5.99
29 | Cc1ccc(COc2cccc(CN3CC[C@H](N(C)c4ncccc4C(=O)OC(C)C)C3)c2)cc1 [Example 385, 1-methylethyl 2-(methyl{(3S)-1-[(3-{[(4-methylphenyl)methyl]oxy}phenyl)methyl]-3-pyrrolidinyl}amino)-3-pyridinecarboxylate] | 5-5.99
30 | Cc1ccc(Oc2ccc(CN3CC[C@H](N(C)c4ncccc4C(=O)OC(C)C)C3)cc2)cc1 [Example 390, 1-methylethyl 2-{methyl[(3S)-1-({4-[(4-methylphenyl)oxy]phenyl}methyl)-3-pyrrolidinyl]amino}-3-pyridinecarboxylate] | 5-5.99
31 | CC(C)OC(=O)c1cccnc1N(C)[C@H]1CCN(Cc2ccc(OCc3c(F)cccc3Cl)cc2)C1 [Example 393, 1-methylethyl 2-[{(3S)-1-[(4-{[(2-chloro-6-fluorophenyl)methyl]oxy}phenyl)methyl]-3-pyrrolidinyl}(methyl)amino]-3-pyridinecarboxylate] | 5-5.99
32 | CC(C)OC(=O)c1cccnc1N1CCN(Cc2cccc(OCc3c(F)cccc3F)c2)CC1 [Example 401, 1-methylethyl 2-{4-[(3-{[(2,6-difluorophenyl)methyl]oxy}phenyl)methyl]-1-piperazinyl}-3-pyridinecarboxylate] | 5-5.99
33 | CC(C)OC(=O)c1cccnc1N1CCN(Cc2cccc(OCc3ccc(F)cc3F)c2)CC1 [Example 404, 1-methylethyl 2-{4-[(3-{[(2,4-difluorophenyl)methyl]oxy}phenyl)methyl]-1-piperazinyl}-3-pyridinecarboxylate] | 5-5.99
34 | CC(C)OC(=O)c1cccnc1N1CCN(Cc2ccc(CN3CCN(Cc4c(F)cccc4Cl)CC3)cc2)CC1 [Example 463, 1-methylethyl 2-(4-{[4-({4-[(2-chloro-6-fluorophenyl)methyl]-1-piperazinyl}methyl)phenyl]methyl}-1-piperazinyl)-3-pyridinecarboxylate] | 5-5.99
35 | CC(C)OC(=O)c1cccnc1N1CCN(Cc2ccc3c(c2)CCN(Cc2c(F)cccc2Cl)C3)CC1 [Example 494, 1-methylethyl 2-[4-({2-[(2-chloro-6-fluorophenyl)methyl]-1,2,3,4-tetrahydro-6-isoquinolinyl}methyl)-1-piperazinyl]-3-pyridinecarboxylate] | 5-5.99
